Earlier results, collected in patent US20260231998A1, “COMPOSITIONS FOR MODULATING GUT MICROFLORA POPULATIONS, TREATMENT OF DYSBIOSIS AND DISEASE PREVENTION, AND METHODS FOR MAKING AND USING SAME” (PERSEPHONE BIOSCIENCES, INC., priority 2023, published 2026).
At least one structure is not confirmed: it was looked up by name or label, or the drawing left a doubt.

Test system: Bifidobacterium infantis strain PB-STR-093
Details: expected value based on the EFSA standards; cited from earlier work

Compound	Expected Antibiotic MIC [µg/mL]
CN(C)[C@@H]1C(O)=C(C(N)=O)C(=O)[C@@]2(O)C(O)=C3C(=O)c4c(O)cccc4[C@@](C)(O)[C@H]3C[C@@H]12 [Tetracycline]	8
CCC[C@@H]1C[C@@H](C(=O)N[C@@H]([C@H]2O[C@H](SC)[C@H](O)[C@@H](O)[C@H]2O)[C@H](C)Cl)N(C)C1 [Clindamycin]	1
